No constants are given. Whether binding was seen depends on the method and setting. In cells and extracts the contact can be indirect. Some binding calls cover weakened binding; strength is not graded here. For some of these results: Where a sequence is shown, tags or fusion partners need not be part of it.
T1: Ssn3-TAP (C. albicans) (UniProt Q5AHK2)
T1 sequence: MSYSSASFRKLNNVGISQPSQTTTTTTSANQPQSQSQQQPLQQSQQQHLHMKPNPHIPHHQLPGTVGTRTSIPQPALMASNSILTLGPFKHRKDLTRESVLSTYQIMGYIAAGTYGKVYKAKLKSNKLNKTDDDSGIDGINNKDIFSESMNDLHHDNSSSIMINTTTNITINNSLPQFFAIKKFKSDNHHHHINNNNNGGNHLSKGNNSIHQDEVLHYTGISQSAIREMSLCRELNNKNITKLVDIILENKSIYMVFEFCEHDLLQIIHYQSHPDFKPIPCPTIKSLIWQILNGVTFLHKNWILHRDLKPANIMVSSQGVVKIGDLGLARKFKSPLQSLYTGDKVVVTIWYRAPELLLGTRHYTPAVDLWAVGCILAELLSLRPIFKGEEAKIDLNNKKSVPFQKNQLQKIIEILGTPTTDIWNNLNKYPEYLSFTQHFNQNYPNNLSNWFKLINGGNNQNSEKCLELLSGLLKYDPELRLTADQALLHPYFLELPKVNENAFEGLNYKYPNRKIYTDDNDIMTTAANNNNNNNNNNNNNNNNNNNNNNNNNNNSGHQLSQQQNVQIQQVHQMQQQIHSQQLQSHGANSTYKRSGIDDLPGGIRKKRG

By UniProt entry, the sequences of proteins in these tests, tags left out.
UniProt Q5AP95: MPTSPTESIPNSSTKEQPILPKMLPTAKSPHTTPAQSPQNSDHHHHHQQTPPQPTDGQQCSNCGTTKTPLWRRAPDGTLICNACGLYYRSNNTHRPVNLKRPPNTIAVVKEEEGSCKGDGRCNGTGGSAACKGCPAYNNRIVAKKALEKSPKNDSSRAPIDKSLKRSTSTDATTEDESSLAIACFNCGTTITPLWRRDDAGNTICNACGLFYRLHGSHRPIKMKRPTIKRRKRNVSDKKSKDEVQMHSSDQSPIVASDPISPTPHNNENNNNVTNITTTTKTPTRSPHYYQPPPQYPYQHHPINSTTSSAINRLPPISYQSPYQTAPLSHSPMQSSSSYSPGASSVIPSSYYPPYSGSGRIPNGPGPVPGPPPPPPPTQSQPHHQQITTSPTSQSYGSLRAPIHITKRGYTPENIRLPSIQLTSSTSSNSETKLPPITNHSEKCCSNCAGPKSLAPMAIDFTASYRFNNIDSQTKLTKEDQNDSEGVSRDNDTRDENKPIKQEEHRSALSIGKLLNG
UniProt Q59UY7: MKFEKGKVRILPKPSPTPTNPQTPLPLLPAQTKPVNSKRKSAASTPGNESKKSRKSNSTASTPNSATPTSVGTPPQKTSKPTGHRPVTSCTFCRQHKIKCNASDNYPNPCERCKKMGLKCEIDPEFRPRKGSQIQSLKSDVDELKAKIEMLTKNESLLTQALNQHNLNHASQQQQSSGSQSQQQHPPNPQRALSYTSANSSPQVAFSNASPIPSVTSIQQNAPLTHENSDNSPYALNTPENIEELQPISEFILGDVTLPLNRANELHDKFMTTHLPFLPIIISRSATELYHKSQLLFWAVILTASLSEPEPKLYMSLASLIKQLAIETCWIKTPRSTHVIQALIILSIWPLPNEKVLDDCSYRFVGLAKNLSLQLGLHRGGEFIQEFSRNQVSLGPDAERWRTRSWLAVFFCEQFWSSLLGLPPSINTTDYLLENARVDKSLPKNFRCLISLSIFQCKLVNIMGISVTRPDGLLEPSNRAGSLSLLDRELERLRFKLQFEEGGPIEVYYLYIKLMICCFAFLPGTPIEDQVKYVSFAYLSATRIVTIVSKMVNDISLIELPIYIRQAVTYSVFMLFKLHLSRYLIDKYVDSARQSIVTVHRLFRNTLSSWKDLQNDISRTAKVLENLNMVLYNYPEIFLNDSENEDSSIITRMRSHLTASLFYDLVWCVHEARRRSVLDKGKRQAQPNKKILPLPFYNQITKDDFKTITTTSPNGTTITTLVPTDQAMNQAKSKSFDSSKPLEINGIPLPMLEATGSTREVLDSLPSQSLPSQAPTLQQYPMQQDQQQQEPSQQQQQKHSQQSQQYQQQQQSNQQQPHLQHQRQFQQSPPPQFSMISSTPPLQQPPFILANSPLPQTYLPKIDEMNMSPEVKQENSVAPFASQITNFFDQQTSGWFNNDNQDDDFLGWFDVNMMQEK


Key:
Assay in all cases: co-IP; IgG-sepharose precipitates the TAP-tagged protein from nondenaturing whole cell extracts of doubly tagged C. albicans grown iron-replete (YPD) or iron-depleted (YPD with DIP); 3 mg protein, 24 h at 4°C; lysis buffer 20 mM Tris pH 7.4, 100 mM KCl, 5 mM MgCl2, 20% glycerol; TEV eluate; immunoblot with anti-Myc
Sfu1-TAP (C. albicans) = Sfu1-TAP (C. albicans) (UniProt Q5AP95)
Ssn3-TAP (C. albicans) = target: T1, Ssn3-TAP (C. albicans)
Sef1-TAP (C. albicans) = Sef1-TAP (C. albicans) (UniProt Q59UY7)

Row | Molecule | binding (Sfu1-TAP (C. albicans)) | binding (Ssn3-TAP (C. albicans)) | binding (Sef1-TAP (C. albicans))
1 | Sef1-Myc (from UniProt Q59UY7 1-917) | binds | binds | 
2 | Sfu1-Myc (from UniProt Q5AP95 1-517) |  |  | binds
3 | Ssn3-Myc (protein, UniProt Q5AHK2 1-608) MSYSSASFRKLNNVGISQPSQTTTTTTSANQPQSQSQQQPLQQSQQQHLHMKPNPHIPHHQLPGTVGTRTSIPQPALMASNSILTLGPFKHRKDLTRESVLSTYQIMGYIAAGTYGKVYKAKLKSNKLNKTDDDSGIDGINNKDIFSESMNDLHHDNSSSIMINTTTNITINNSLPQFFAIKKFKSDNHHHHINNNNNGGNHLSKGNNSIHQDEVLHYTGISQSAIREMSLCRELNNKNITKLVDIILENKSIYMVFEFCEHDLLQIIHYQSHPDFKPIPCPTIKSLIWQILNGVTFLHKNWILHRDLKPANIMVSSQGVVKIGDLGLARKFKSPLQSLYTGDKVVVTIWYRAPELLLGTRHYTPAVDLWAVGCILAELLSLRPIFKGEEAKIDLNNKKSVPFQKNQLQKIIEILGTPTTDIWNNLNKYPEYLSFTQHFNQNYPNNLSNWFKLINGGNNQNSEKCLELLSGLLKYDPELRLTADQALLHPYFLELPKVNENAFEGLNYKYPNRKIYTDDNDIMTTAANNNNNNNNNNNNNNNNNNNNNNNNNNNSGHQLSQQQNVQIQQVHQMQQQIHSQQLQSHGANSTYKRSGIDDLPGGIRKKRG |  |  | binds
